± gives the standard deviation of the averaged measurements. Some of the results follow.
Compound: Nc1nc2c(ncn2[C@@H]2O[C@H](COP(=O)(O)OP(=O)(O)OP(=O)(O)O)[C@@H](O)[C@H]2O)c(=O)[nH]1 [guanosine triphosphate]
Test: NP40-soluble protein abundance relative to vehicle (solubility fold change) (ratio); higher = more soluble protein in presence of GTP
In short: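 Data come from three independent experiments in which Dounce-homogenised Jurkat crude lysate was treated at eight concentrations from 0.1 to 10 mM. Treatment ran 10 min at room temperature and then 3 min at 37 °C, after which 0.8% NP40 and benzonase were added for 60 min at 4 °C before ultracentrifugation. The supernatant underwent TMT labelling and LC-MS/MS, and vsn-normalised intensities were expressed as fold change against the detergent-processed vehicle in each replicate.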

The chains behind the UniProt entries cited, without tags or fusion partners. Where a name states a change or a piece, a line headed by the entry shows the natural chain unless it says otherwise.
UniProt Q6IEG0: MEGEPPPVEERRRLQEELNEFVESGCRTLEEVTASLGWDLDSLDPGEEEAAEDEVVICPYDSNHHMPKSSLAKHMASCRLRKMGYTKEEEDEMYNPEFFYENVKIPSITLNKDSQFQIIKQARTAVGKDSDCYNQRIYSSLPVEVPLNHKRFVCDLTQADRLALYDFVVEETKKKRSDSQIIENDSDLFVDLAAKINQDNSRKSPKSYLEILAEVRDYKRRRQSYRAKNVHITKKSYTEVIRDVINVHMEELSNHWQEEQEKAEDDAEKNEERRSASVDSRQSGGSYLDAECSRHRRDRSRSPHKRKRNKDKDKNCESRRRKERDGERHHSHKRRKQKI
UniProt Q684P5: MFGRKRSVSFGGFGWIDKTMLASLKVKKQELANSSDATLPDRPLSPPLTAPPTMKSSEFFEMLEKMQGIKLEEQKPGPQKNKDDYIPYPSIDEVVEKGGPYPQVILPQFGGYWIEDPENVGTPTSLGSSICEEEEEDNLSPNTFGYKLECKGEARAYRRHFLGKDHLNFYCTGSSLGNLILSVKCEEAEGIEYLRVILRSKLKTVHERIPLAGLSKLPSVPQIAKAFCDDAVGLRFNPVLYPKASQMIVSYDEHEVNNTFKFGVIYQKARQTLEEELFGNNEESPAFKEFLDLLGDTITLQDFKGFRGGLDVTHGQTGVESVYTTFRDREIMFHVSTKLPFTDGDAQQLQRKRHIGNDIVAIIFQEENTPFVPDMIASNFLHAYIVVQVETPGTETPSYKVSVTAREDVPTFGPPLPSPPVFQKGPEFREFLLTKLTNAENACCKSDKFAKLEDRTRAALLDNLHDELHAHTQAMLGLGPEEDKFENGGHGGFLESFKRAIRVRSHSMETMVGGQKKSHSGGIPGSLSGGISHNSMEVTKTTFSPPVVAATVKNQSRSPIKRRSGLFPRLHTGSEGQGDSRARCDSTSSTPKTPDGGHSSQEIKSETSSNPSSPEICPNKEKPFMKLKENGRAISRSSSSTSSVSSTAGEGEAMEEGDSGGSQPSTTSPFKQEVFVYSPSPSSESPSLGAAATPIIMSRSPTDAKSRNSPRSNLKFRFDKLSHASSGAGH
UniProt Q68EM7: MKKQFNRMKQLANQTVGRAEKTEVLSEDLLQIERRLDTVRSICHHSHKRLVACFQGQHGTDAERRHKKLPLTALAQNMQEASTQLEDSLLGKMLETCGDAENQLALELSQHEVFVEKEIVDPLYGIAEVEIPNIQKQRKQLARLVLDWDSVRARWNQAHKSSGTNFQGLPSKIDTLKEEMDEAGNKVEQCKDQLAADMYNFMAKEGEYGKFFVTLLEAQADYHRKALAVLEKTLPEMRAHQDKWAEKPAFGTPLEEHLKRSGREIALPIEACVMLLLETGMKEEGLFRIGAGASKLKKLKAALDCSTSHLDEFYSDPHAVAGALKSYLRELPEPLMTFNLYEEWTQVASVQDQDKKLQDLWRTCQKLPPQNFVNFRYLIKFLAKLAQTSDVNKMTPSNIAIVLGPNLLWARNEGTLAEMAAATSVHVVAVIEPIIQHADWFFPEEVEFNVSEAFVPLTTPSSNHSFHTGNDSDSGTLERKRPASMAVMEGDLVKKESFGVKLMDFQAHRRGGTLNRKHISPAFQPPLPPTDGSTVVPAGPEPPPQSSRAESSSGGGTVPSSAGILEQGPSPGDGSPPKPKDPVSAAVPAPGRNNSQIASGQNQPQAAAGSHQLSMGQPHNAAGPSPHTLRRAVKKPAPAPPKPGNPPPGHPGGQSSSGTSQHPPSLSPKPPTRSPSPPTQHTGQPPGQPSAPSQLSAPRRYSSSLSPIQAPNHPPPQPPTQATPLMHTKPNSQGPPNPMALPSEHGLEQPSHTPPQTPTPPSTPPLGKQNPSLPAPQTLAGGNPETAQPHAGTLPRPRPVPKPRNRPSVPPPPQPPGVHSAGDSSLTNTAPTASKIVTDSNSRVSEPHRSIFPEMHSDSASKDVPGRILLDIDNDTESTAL
UniProt Q6YP21: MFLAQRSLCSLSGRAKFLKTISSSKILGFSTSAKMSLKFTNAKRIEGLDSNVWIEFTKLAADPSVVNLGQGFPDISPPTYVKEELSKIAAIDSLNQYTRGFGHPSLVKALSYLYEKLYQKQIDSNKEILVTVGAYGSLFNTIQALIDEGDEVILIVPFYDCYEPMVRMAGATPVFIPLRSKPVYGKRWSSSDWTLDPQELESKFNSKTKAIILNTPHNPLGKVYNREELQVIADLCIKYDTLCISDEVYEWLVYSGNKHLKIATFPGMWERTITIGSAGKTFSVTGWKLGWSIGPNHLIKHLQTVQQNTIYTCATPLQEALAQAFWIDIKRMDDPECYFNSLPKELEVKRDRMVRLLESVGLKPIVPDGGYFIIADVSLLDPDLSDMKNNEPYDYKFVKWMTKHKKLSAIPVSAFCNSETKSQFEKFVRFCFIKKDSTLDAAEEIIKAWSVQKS
UniProt Q86TN4: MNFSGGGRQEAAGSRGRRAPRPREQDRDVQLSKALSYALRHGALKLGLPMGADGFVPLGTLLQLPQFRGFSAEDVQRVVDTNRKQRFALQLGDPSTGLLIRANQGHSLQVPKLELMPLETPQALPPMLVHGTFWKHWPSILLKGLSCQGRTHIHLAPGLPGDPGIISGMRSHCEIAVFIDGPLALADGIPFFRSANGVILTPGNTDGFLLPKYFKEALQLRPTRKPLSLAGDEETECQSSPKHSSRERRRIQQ
UniProt Q7L266: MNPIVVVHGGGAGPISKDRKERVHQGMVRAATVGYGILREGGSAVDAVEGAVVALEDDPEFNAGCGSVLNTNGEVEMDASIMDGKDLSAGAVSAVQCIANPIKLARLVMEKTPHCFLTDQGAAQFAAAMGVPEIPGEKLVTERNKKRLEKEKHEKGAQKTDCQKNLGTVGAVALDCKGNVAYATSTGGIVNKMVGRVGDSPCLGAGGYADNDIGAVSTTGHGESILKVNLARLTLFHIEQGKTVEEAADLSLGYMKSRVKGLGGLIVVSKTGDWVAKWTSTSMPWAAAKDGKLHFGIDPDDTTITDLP
UniProt Q6PGP7, whole entry: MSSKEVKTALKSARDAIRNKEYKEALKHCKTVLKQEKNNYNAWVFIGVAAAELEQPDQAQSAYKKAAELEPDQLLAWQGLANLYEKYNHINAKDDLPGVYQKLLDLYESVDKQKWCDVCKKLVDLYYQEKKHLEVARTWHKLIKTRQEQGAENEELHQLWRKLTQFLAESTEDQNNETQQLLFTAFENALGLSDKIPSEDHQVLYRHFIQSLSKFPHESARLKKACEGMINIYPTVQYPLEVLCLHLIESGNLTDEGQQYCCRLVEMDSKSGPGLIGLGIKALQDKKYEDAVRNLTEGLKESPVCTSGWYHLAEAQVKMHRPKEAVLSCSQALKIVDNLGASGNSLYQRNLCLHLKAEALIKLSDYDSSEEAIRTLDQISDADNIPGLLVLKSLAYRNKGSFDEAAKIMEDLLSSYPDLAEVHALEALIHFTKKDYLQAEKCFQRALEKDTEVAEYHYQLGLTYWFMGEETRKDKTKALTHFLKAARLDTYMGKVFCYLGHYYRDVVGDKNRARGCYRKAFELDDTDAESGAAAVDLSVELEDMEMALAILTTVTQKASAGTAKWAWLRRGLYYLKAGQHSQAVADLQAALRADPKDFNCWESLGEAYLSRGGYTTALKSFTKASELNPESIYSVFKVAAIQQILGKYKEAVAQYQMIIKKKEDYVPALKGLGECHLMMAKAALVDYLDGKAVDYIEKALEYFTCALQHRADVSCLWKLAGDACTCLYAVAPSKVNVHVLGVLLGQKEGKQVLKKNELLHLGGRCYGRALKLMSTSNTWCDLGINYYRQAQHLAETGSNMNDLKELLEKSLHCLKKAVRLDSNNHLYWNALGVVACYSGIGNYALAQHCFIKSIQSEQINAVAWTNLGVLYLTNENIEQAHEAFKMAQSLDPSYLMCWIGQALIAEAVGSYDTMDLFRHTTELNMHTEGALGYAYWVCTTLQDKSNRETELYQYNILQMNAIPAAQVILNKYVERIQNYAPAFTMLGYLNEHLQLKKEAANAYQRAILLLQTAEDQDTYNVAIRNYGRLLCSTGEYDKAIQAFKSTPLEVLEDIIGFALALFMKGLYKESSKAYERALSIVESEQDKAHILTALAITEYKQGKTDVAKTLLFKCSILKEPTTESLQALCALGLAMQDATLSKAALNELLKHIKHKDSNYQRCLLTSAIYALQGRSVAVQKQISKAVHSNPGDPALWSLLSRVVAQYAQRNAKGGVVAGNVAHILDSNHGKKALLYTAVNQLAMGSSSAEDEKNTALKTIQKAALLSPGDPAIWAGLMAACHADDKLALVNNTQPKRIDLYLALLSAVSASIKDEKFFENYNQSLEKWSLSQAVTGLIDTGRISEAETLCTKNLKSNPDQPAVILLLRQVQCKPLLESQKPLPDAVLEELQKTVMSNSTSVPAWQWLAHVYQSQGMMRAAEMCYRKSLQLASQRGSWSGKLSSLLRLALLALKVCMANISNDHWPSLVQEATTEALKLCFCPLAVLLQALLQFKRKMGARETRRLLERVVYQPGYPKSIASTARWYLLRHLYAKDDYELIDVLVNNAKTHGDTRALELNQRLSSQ
UniProt Q5VVJ2: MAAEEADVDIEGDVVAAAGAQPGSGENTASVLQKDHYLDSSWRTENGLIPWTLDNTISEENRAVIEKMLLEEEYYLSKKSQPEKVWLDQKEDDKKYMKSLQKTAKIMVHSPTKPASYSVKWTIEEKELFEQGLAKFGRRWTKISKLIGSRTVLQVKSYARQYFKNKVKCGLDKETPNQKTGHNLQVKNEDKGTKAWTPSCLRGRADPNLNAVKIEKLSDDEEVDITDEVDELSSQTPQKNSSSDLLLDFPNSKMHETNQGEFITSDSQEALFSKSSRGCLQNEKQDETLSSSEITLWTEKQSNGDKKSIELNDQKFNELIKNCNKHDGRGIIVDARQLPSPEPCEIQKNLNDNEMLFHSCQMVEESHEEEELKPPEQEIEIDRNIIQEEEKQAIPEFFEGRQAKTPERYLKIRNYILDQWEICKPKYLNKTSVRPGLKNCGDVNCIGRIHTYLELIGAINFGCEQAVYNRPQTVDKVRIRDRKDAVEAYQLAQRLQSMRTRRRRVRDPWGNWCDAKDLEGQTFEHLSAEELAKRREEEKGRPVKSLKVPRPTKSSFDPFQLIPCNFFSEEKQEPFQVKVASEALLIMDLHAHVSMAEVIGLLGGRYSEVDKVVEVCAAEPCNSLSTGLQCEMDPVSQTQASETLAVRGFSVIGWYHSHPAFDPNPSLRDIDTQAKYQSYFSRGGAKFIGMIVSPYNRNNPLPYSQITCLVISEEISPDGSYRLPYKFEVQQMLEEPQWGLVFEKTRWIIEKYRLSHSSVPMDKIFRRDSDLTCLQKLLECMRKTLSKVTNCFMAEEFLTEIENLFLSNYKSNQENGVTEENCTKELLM
UniProt Q71RC2, whole entry: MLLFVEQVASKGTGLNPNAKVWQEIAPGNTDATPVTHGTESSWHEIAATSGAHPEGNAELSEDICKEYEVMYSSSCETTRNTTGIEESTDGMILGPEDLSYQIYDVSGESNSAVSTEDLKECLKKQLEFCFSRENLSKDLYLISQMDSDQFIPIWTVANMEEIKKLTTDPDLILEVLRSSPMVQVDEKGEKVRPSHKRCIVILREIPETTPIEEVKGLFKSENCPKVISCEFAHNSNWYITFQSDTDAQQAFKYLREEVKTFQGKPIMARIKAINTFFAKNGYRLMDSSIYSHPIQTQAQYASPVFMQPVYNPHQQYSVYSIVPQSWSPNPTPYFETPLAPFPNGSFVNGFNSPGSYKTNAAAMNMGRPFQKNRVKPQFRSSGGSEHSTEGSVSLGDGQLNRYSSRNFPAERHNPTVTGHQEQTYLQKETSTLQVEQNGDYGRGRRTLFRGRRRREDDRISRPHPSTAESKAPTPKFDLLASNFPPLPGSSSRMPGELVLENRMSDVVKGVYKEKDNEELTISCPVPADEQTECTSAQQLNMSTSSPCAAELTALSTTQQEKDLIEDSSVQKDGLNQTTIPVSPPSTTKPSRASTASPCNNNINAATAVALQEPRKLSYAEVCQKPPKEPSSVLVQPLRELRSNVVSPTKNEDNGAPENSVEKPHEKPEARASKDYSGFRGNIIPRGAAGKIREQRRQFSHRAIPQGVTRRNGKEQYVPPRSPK
UniProt Q7L592: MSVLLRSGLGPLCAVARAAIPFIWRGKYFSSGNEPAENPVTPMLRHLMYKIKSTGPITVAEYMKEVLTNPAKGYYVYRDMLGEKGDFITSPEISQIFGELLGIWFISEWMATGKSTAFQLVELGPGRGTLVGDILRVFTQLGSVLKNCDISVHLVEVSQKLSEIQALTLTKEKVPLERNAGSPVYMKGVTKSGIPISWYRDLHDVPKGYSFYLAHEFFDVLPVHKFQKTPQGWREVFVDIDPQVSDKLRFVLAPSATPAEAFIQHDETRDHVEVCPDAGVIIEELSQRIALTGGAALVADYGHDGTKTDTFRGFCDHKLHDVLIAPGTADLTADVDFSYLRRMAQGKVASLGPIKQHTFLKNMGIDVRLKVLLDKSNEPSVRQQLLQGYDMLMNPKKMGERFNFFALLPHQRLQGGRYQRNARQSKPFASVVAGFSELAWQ

Row | Target | NP40-soluble protein abundance (concentration: 0.1mM) | NP40-soluble protein abundance (concentration: 0.5mM) | NP40-soluble protein abundance (concentration: 1mM) | NP40-soluble protein abundance (concentration: 2mM) | NP40-soluble protein abundance (concentration: 4mM) | NP40-soluble protein abundance (concentration: 6mM) | NP40-soluble protein abundance (concentration: 8mM) | NP40-soluble protein abundance (concentration: 10mM)
1 | SNRNP48 (UniProt Q6IEG0) | 1.08 ± 0.0069 | 1.14 ± 0.0098 | 1.21 ± 0.073 | 1.24 ± 0.1 | 1.33 ± 0.091 | 1.34 ± 0.087 | 1.44 ± 0.13 | 1.44 ± 0.11
2 | SLC25A24 (UniProt Q6NUK1) | 0.934 ± 0.055 | 0.93 ± 0.033 | 0.857 ± 0.039 | 0.854 ± 0.014 | 0.837 ± 0.026 | 0.845 ± 0.024 | 0.809 ± 0.061 | 0.817 ± 0.057
3 | DCAF15 (UniProt Q66K64) | 0.927 ± 0.097 | 0.82 ± 0.1 | 0.965 ± 0.02 | 0.948 ± 0.16 | 0.851 ± 0.16 | 0.866 ± 0.12 | 0.807 ± 0.089 | 0.891 ± 0.14
4 | ARHGAP30 (UniProt Q7Z6I6) | 0.947 ± 0.042 | 1.03 ± 0.091 | 0.997 ± 0.082 | 0.98 ± 0.088 | 0.958 ± 0.084 | 1 ± 0.082 | 0.979 ± 0.079 | 0.973 ± 0.096
5 | AACS (UniProt Q86V21) | 0.996 ± 0.085 | 0.995 ± 0.037 | 0.874 ± 0.05 | 0.934 ± 0.028 | 0.923 ± 0.061 | 0.862 ± 0.049 | 0.819 ± 0.097 | 0.867 ± 0.11
6 | CTR9 (UniProt Q6PD62) | 1.07 ± 0.063 | 1.09 ± 0.1 | 0.982 ± 0.077 | 0.996 ± 0.12 | 0.971 ± 0.088 | 0.943 ± 0.12 | 0.88 ± 0.072 | 0.785 ± 0.051
7 | SAMD1 (UniProt Q6SPF0) | 0.917 ± 0.1 | 0.899 ± 0.18 | 1.09 ± 0.12 | 1.02 ± 0.18 | 1.01 ± 0.098 | 1.06 ± 0.18 | 1.09 ± 0.069 | 1.11 ± 0.026
8 | UniProt Q684P5 and related entries | 0.998 ± 0.014 | 0.997 ± 0.027 | 0.94 ± 0.031 | 0.943 ± 0.043 | 0.935 ± 0.025 | 0.937 ± 0.032 | 0.932 ± 0.047 | 0.921 ± 0.023
9 | NADSYN1 (UniProt Q6IA69) | 0.95 ± 0.07 | 1.02 ± 0.083 | 1.05 ± 0.041 | 1 ± 0.027 | 1.01 ± 0.039 | 0.982 ± 0.034 | 0.956 ± 0.072 | 0.97 ± 0.037
10 | SASS6 (UniProt Q6UVJ0) | 1.02 ± 0.052 | 0.941 ± 0.042 | 1.02 ± 0.032 | 1 ± 0.058 | 0.9773 ± 0.007 | 0.963 ± 0.051 | 1.002 ± 0.0092 | 0.956 ± 0.023
11 | UniProt Q6PJG6 | 1.03 ± 0.063 | 1.02 ± 0.064 | 0.98 ± 0.086 | 1.01 ± 0.1 | 0.978 ± 0.077 | 0.974 ± 0.059 | 0.962 ± 0.031 | 0.958 ± 0.082
12 | UniProt Q68EM7 and related entries | 0.985 ± 0.052 | 0.945 ± 0.032 | 0.966 ± 0.057 | 0.917 ± 0.013 | 0.935 ± 0.039 | 0.912 ± 0.028 | 0.937 ± 0.079 | 0.923 ± 0.044
13 | UniProt Q6YP21 and related entries | 1.03 ± 0.046 | 1.02 ± 0.058 | 0.943 ± 0.043 | 0.928 ± 0.073 | 0.925 ± 0.087 | 0.9 ± 0.06 | 0.874 ± 0.042 | 0.834 ± 0.064
14 | UniProt Q70Z53 | 1.01 ± 0.057 | 1.01 ± 0.022 | 0.931 ± 0.035 | 0.943 ± 0.045 | 0.912 ± 0.051 | 0.913 ± 0.033 | 0.926 ± 0.048 | 0.894 ± 0.057
15 | UniProt Q86TN4 and related entries | 1.08 ± 0.042 | 1.01 ± 0.026 | 1.07 ± 0.045 | 1.06 ± 0.034 | 1.09 ± 0.038 | 1.07 ± 0.045 | 1.11 ± 0.035 | 1.1 ± 0.034
16 | TAOK1 (UniProt Q7L7X3) | 1.04 ± 0.087 | 1.07 ± 0.13 | 0.975 ± 0.059 | 1.01 ± 0.13 | 1.04 ± 0.098 | 0.949 ± 0.11 | 0.965 ± 0.055 | 0.966 ± 0.073
17 | Q7L9L4 and related entries (UniProt Q9H8S9+Q7L9L4) | 0.983 ± 0.014 | 0.965 ± 0.031 | 0.947 ± 0.045 | 0.933 ± 0.041 | 0.991 ± 0.049 | 0.899 ± 0.11 | 0.915 ± 0.1 | 0.915 ± 0.11
18 | UniProt Q6IPR3 and related entries | 1.09 ± 0.034 | 1.14 ± 0.04 | 0.948 ± 0.12 | 0.961 ± 0.23 | 0.956 ± 0.23 | 0.968 ± 0.16 | 0.987 ± 0.14 | 0.972 ± 0.093
19 | UniProt Q6PII3 and related entries | 0.938 ± 0.051 | 0.976 ± 0.084 | 0.957 ± 0.045 | 0.928 ± 0.063 | 0.878 ± 0.083 | 0.974 ± 0.082 | 0.977 ± 0.075 | 1 ± 0.064
20 | UniProt Q7L266 and related entries | 0.951 ± 0.095 | 0.894 ± 0.071 | 0.933 ± 0.092 | 0.921 ± 0.13 | 0.935 ± 0.12 | 0.904 ± 0.11 | 0.908 ± 0.1 | 0.948 ± 0.14
21 | UniProt Q86SQ7 and related entries | 0.967 ± 0.026 | 0.9735 ± 0.0059 | 1.1 ± 0.021 | 1.02 ± 0.09 | 0.959 ± 0.074 | 0.969 ± 0.082 | 0.995 ± 0.08 | 1.09 ± 0.15
22 | UniProt Q7Z5J4 and related entries | 1 ± 0.039 | 1.03 ± 0.049 | 1.07 ± 0.034 | 1.1 ± 0.068 | 1.1 ± 0.036 | 1.16 ± 0.024 | 1.24 ± 0.11 | 1.3 ± 0.15
23 | TTC37 (UniProt Q6PGP7) | 0.91 ± 0.12 | 0.973 ± 0.068 | 0.971 ± 0.1 | 0.985 ± 0.15 | 0.955 ± 0.12 | 0.975 ± 0.13 | 0.949 ± 0.17 | 0.981 ± 0.025
24 | MYSM1 (UniProt Q5VVJ2) | 1.02 ± 0.032 | 0.972 ± 0.074 | 0.991 ± 0.031 | 0.938 ± 0.083 | 0.943 ± 0.064 | 0.905 ± 0.1 | 0.959 ± 0.037 | 0.935 ± 0.073
25 | LARP1 (UniProt Q6PKG0) | 1.02 ± 0.039 | 1.11 ± 0.06 | 1.32 ± 0.1 | 1.46 ± 0.11 | 1.66 ± 0.16 | 1.78 ± 0.17 | 1.88 ± 0.22 | 1.99 ± 0.22
26 | UniProt Q71RC2 and related entries | 1.04 ± 0.056 | 1.04 ± 0.038 | 1.13 ± 0.021 | 1.19 ± 0.059 | 1.23 ± 0.04 | 1.29 ± 0.015 | 1.37 ± 0.07 | 1.46 ± 0.12
27 | UniProt Q6NW34 and related entries | 0.848 ± 0.051 | 0.888 ± 0.08 | 0.881 ± 0.074 | 0.85 ± 0.031 | 0.839 ± 0.071 | 0.929 ± 0.032 | 0.871 ± 0.059 | 0.93 ± 0.012
28 | RINT1 (UniProt Q6NUQ1) | 1.16 ± 0.025 | 1.21 ± 0.1 | 1.17 ± 0.042 | 1.19 ± 0.1 | 1.22 ± 0.1 | 1.16 ± 0.087 | 1.18 ± 0.098 | 1.13 ± 0.099
29 | UniProt Q6GPH4 and related entries | 1.05 ± 0.033 | 1.01 ± 0.032 | 0.9713 ± 0.0081 | 0.994 ± 0.028 | 0.934 ± 0.066 | 0.919 ± 0.027 | 1.02 ± 0.039 | 0.927 ± 0.089
30 | UniProt Q7L592 | 1.04 ± 0.043 | 0.992 ± 0.05 | 0.969 ± 0.071 | 0.867 ± 0.025 | 0.923 ± 0.062 | 0.942 ± 0.088 | 0.86 ± 0.078 | 0.855 ± 0.095

2 entries from above, reformatted.
Row	Target	NP40-soluble protein abundance (concentration: 0.1mM)	NP40-soluble protein abundance (concentration: 0.5mM)	NP40-soluble protein abundance (concentration: 1mM)	NP40-soluble protein abundance (concentration: 2mM)	NP40-soluble protein abundance (concentration: 4mM)	NP40-soluble protein abundance (concentration: 6mM)	NP40-soluble protein abundance (concentration: 8mM)	NP40-soluble protein abundance (concentration: 10mM)
22	UniProt Q7Z5J4 and related entries	1 ± 0.039	1.03 ± 0.049	1.07 ± 0.034	1.1 ± 0.068	1.1 ± 0.036	1.16 ± 0.024	1.24 ± 0.11	1.3 ± 0.15
26	UniProt Q71RC2 and related entries	1.04 ± 0.056	1.04 ± 0.038	1.13 ± 0.021	1.19 ± 0.059	1.23 ± 0.04	1.29 ± 0.015	1.37 ± 0.07	1.46 ± 0.12

From the supplement of paper PMC6411743
